Protein sequences, listed by entry. Tags and fused reporters are not part of them.
UniProt Q03940: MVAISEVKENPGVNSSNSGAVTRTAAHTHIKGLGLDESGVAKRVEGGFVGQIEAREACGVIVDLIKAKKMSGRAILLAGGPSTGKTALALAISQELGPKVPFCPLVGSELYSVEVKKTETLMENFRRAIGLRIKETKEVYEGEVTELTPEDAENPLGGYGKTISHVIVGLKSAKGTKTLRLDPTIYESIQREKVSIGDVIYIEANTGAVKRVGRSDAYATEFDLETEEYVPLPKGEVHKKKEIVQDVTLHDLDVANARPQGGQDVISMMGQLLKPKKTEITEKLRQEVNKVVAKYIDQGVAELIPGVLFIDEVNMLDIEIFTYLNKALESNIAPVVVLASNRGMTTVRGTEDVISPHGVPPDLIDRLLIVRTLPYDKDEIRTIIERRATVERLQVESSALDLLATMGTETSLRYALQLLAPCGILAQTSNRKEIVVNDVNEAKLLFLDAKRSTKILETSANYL
UniProt Q12464: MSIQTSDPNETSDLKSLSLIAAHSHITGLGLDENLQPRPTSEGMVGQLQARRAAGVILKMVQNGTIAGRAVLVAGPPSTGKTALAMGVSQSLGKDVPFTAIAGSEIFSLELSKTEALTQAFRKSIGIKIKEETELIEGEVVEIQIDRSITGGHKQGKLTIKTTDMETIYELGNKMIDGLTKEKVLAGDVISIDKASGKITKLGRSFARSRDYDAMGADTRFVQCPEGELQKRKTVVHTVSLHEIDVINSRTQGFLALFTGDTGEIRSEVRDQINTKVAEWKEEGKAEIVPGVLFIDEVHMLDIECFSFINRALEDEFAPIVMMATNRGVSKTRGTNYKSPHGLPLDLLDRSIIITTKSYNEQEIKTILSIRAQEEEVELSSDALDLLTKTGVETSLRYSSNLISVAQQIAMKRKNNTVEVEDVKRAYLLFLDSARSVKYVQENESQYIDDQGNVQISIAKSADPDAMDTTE

In article PMC4207488:

Target: T1, Tap-tagged Not5 (S. cerevisiae) (UniProt Q12514)
T1 sequence: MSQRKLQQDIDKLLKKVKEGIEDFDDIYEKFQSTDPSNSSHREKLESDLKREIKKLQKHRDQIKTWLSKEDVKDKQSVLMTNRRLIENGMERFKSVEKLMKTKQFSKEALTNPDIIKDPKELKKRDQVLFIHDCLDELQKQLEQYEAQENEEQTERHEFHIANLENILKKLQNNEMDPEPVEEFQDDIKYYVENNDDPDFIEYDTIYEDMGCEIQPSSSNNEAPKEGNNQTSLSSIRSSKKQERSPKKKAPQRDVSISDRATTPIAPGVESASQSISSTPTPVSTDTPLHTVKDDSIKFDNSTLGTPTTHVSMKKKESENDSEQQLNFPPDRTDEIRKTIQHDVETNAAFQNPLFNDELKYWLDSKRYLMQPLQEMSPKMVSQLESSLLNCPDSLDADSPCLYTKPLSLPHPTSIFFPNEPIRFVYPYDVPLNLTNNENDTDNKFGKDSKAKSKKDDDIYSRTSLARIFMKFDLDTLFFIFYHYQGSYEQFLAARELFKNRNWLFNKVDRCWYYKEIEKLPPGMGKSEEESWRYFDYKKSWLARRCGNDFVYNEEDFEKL
Assay: affinity purification with mass spectrometry; Tap-tagged Not5 purified, purified proteins on a native gel stained with Coomassie, the entire lane cut in slices and analysed by LC/MS/MS

Substance: Rvb1 (from UniProt Q03940 1-463)
- binding: binds

Substance: Rvb2 (from UniProt Q12464 1-471)
- binding: binds

No constants are given. Whether binding was seen depends on the method and setting. In cells and extracts the contact can be indirect. Here binding means that the protein was enriched with, or labelled near, the bait; the list need not be complete. Sequences can lack the tags named with a protein.
